The assay deals with recombinant HIV-1 gp120 from isolate BaL (HIV-1 isolate BaL). Kind of assay: ELISA; competition: HD5 at 5.6 µM added before a panel of anti-gp120 mAbs (5 µg/ml each) on plastic-immobilised gp120BaL (coated at 2 µg/mL); for 17b and 48d the gp120 was preincubated with sCD4; both purified. Background: In an ELISA, binding on a coated surface is turned into a signal by an enzyme label.

These are yes or no findings as the source states them, for the method shown. Binding calls can cover weak binding; strength is not graded here.

B1: human α-defensin-5 (peptide, UniProt Q01523 63-94)
chain: ATCYCRTGRCATRESLSGVCEISGRLYRLCCR
For B1, the binding result is given as “binds”.

The values are drawn from paper PMC3459904, “Inhibition of HIV-1 Infection by Human α-Defensin-5, a Natural Antimicrobial Peptide Expressed in the Genital and Intestinal Mucosae” (PLoS ONE, 2012).
